PubChem BioAssay AID1259254 | NCATS | 2017
The whole screen tested about 59,000 reagents; this is a random part of them. Of all reagents, about 1,550 (2.6%) got an active call. 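G2 share is only a proxy for re-replication; each gene was hit by three separate siRNAs, and active genes were retested.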 Entries without a mark were called inactive. Reagents against one gene are numbered here. Not all columns of the deposit are shown. Not stated in the record: the amount of reagent.

- Purpose: 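Gene knock-downs that lead to re-replication, shown by excess G2 DNA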 (primary screen)
- System: human HCT116 colorectal cancer cells
- Reagents: single siRNA against human genes
- Time to read-out: 3 days
- Measurement: 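Nuclei stained with Hoechst and imaged; cell-cycle phase assigned by DNA content; G2 share scaled per plate, non-targeting siRNA 0%, GMNN siRNA 100%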
- Scale: G2 robust z-score: higher = more G2 cells, more excess DNA replication
- Active means: 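Active siRNAs have a G2 robust z of 5 or more median absolute deviations over the median, which in these data means about 38% or higher of GMNN control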

no.	target gene	reagent	G2 robust z-score
1	H1-3 (GeneID 3007)	1	-0.11
2	H1-3 (GeneID 3007)	2	0.575
3	H1-3 (GeneID 3007)	3	0.076
4	GJA1 (GeneID 2697)	1	1.98
5	GJA1 (GeneID 2697)	2	-0.493
6	GJA1 (GeneID 2697)	3	0.389
7	SLC29A2 (GeneID 3177)	1	-0.699
8	SLC29A2 (GeneID 3177)	2	-1.26
9	SLC29A2 (GeneID 3177)	3	0.862
10	ZNF641 (GeneID 121274)	1	0.304
11	ZNF641 (GeneID 121274)	2	0.674
12	ZNF641 (GeneID 121274)	3	-0.995
13	GOT2 (GeneID 2806)	1	2.85
14	GOT2 (GeneID 2806)	2	-1.08
15	GOT2 (GeneID 2806)	3	0.608
16	ARRDC2 (GeneID 27106)	1	1.63
17	ARRDC2 (GeneID 27106)	2	1.05
18	ARRDC2 (GeneID 27106)	3	5.31 (active)
19	ARL10 (GeneID 285598)	1	1.26
20	ARL10 (GeneID 285598)	2	-0.272
21	ARL10 (GeneID 285598)	3	-0.305
22	FGFBP1 (GeneID 9982)	1	-0.757
23	FGFBP1 (GeneID 9982)	2	-0.703
24	FGFBP1 (GeneID 9982)	3	-0.121
25	HOMEZ (GeneID 57594)	1	-0.0712
26	HOMEZ (GeneID 57594)	2	0.299
27	HOMEZ (GeneID 57594)	3	1.42
28	TMCO5A (GeneID 145942)	1	3.15
29	TMCO5A (GeneID 145942)	2	1.63
30	TMCO5A (GeneID 145942)	3	-0.514
31	GTPBP1 (GeneID 9567)	1	-0.802
32	GTPBP1 (GeneID 9567)	2	-0.746
33	GTPBP1 (GeneID 9567)	3	-0.24
34	FBXL3 (GeneID 26224)	1	1.01
35	FBXL3 (GeneID 26224)	2	-0.32
36	FBXL3 (GeneID 26224)	3	-0.833
37	ARID2 (GeneID 196528)	1	0.247
38	ARID2 (GeneID 196528)	2	-0.31
39	ARID2 (GeneID 196528)	3	-0.254
40	TSHR (GeneID 7253)	1	0.406
41	TSHR (GeneID 7253)	2	1.37
42	TSHR (GeneID 7253)	3	2.9
43	BMP2 (GeneID 650)	1	0.853
44	BMP2 (GeneID 650)	2	1.85
45	BMP2 (GeneID 650)	3	-0.283
46	HSFX1 (GeneID 100506164)	1	0.546
47	HSFX1 (GeneID 100506164)	2	1.84
48	HSFX1 (GeneID 100506164)	3	1.08
49	PEBP1 (GeneID 5037)	1	0.0611
50	PEBP1 (GeneID 5037)	2	0.321
51	PEBP1 (GeneID 5037)	3	-1.36
52	ZNF706 (GeneID 51123)	1	2.01
53	ZNF706 (GeneID 51123)	2	0.156
54	ZNF706 (GeneID 51123)	3	1.92
55	EIF3C (GeneID 8663)	1	-0.539
56	EIF3C (GeneID 8663)	2	4.3
57	EIF3C (GeneID 8663)	3	6.5 (active)
58	ESD (GeneID 2098)	1	0.464
59	ESD (GeneID 2098)	2	-0.173
60	ESD (GeneID 2098)	3	-0.253
61	FBXL5 (GeneID 26234)	1	-1.31
62	FBXL5 (GeneID 26234)	2	-0.754
63	FBXL5 (GeneID 26234)	3	-0.032
64	UNC5C (GeneID 8633)	1	1
65	UNC5C (GeneID 8633)	2	3.77
66	UNC5C (GeneID 8633)	3	2.41
67	SLCO6A1 (GeneID 133482)	1	-0.139
68	SLCO6A1 (GeneID 133482)	2	0.835
69	SLCO6A1 (GeneID 133482)	3	2.33
